{"source": "patent US11702424B2", "about": "“Bicyclic-fused heteroaryl or aryl compounds” (Pfizer Inc., priority 2014, dated 2023)", "system": "imiquimod induced skin inflammation", "experiment": "Imiquimod Induced Mouse Model of Skin Inflammation", "assay_type": "in vivo", "details": "Example 296 PO BID daily x 5 days, P40 Ab IP day 1, 4, compared to Vehicle", "note": "At least one compound was matched to its structure with a doubt left.", "data": [{"smiles": "CC[C@@H]1[C@H](F)C(=O)N[C@@H]1COc1nccc2cc(C(N)=O)c(OC)cc12", "note": "[Example 296, 1-{[(2S,3S,4S)-3-ethyl-4-fluoro-5-oxopyrrolidin-2-yl]methoxy}-7-methoxyisoquinoline-6-carboxamide]", "values": [{"measurement": "Mean change in ear swelling (μm) from baseline ear measurements on day 5", "result": "significantly reduced ear swelling"}]}]}
